No constants are given. Whether binding was seen depends on the method and setting. In cells and extracts the contact can be indirect. These calls come from enrichment with a bait or labelling near it, and not all partners need be listed. Tags and fused reporters may be left off the sequences shown.
Target: T1, GFP-Syntaxin 11 (UniProt O75558)
T1 sequence: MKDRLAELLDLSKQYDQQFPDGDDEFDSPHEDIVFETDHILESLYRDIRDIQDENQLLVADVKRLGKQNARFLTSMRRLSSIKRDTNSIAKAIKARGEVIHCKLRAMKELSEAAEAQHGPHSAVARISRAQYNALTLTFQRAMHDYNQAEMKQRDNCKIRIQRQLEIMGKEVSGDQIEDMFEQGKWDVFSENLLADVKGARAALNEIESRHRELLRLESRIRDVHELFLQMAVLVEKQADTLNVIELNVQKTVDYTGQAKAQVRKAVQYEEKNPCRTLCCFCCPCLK
Test: affinity purification with mass spectrometry; GFP-STX11 (or GFP alone) expressed in primary human CD8+ T cells; 24 h later cells activated with anti-CD3 and anti-CD28-coated beads, lysed; co-IP kit (Thermo Scientific) with anti-GFP-coated beads; bound proteins run on SDS/PAGE and identified by mass spectrometry

B1: Extended-Synaptotagmin-1 (protein, UniProt Q9BSJ8 1-1104)
chain: MERSPGEGPSPSPMDQPSAPSDPTDQPPAAHAKPDPGSGGQPAGPGAAGEALAVLTSFGRRLLVLIPVYLAGAVGLSVGFVLFGLALYLGWRRVRDEKERSLRAARQLLDDEEQLTAKTLYMSHRELPAWVSFPDVEKAEWLNKIVAQVWPFLGQYMEKLLAETVAPAVRGSNPHLQTFTFTRVELGEKPLRIIGVKVHPGQRKEQILLDLNISYVGDVQIDVEVKKYFCKAGVKGMQLHGVLRVILEPLIGDLPFVGAVSMFFIRRPTLDINWTGMTNLLDIPGLSSLSDTMIMDSIAAFLVLPNRLLVPLVPDLQDVAQLRSPLPRGIIRIHLLAARGLSSKDKYVKGLIEGKSDPYALVRLGTQTFCSRVIDEELNPQWGETYEVMVHEVPGQEIEVEVFDKDPDKDDFLGRMKLDVGKVLQASVLDDWFPLQGGQGQVHLRLEWLSLLSDAEKLEQVLQWNWGVSSRPDPPSAAILVVYLDRAQDLPLKKGNKEPNPMVQLSIQDVTQESKAVYSTNCPVWEEAFRFFLQDPQSQELDVQVKDDSRALTLGALTLPLARLLTAPELILDQWFQLSSSGPNSRLYMKLVMRILYLDSSEICFPTVPGCPGAWDVDSENPQRGSSVDAPPRPCHTTPDSQFGTEHVLRIHVLEAQDLIAKDRFLGGLVKGKSDPYVKLKLAGRSFRSHVVREDLNPRWNEVFEVIVTSVPGQELEVEVFDKDLDKDDFLGRCKVRLTTVLNSGFLDEWLTLEDVPSGRLHLRLERLTPRPTAAELEEVLQVNSLIQTQKSAELAAALLSIYMERAEDLPLRKGTKHLSPYATLTVGDSSHKTKTISQTSAPVWDESASFLIRKPHTESLELQVRGEGTGVLGSLSLPLSELLVADQLCLDRWFTLSSGQGQVLLRAQLGILVSQHSGVEAHSHSYSHSSSSLSEEPELSGGPPHITSSAPELRQRLTHVDSPLEAPAGPLGQVKLTLWYYSEERKLVSIVHGCRSLRQNGRDPPDPYVSLLLLPDKNRGTKRRTSQKKRTLSPEFNERFEWELPLDEAQRRKLDVSVKSNSSFMSRERELLGKVQLDLAETDLSQGVARWYDLMDNKDKGSS
In the case of B1, the binding is reported as “binds”.

Reference: paper PMC10897422
